Results taken from publication PMC5562876, “The integration of Gβ and MAPK signaling cascade in zygote development” (Scientific Reports, 2017).
Results are given in words; binding and its absence hold for the method and conditions named. Binding seen in cells or lysates may run through a third protein. Some binding calls cover weakened binding; strength is not graded here.

The chains behind the UniProt entries cited, without tags or fusion partners.
UniProt Q39026: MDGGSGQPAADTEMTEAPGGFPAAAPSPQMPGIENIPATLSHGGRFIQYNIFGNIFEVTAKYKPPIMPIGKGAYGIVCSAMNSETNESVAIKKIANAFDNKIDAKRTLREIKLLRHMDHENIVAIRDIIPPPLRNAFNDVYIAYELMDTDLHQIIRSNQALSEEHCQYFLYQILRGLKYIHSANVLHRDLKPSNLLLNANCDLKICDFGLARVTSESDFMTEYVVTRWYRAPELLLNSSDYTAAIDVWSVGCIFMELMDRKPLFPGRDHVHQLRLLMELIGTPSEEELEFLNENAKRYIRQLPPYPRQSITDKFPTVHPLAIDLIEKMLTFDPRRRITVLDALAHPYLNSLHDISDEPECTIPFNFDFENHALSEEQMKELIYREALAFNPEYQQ

T1: MKK4 (expressed in Arabidopsis protoplasts) (Arabidopsis thaliana) (UniProt O80397)
T1 sequence: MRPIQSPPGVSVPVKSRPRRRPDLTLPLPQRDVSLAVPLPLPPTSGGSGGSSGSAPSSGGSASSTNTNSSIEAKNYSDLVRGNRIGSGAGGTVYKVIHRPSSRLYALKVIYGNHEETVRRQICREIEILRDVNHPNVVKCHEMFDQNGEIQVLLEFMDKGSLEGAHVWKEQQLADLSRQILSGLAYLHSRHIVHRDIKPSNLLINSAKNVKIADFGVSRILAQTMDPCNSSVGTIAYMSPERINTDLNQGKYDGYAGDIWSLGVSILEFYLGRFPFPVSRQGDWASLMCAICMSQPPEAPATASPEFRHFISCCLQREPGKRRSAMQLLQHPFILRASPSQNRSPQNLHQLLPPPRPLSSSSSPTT

T2: MKK5 (expressed in Arabidopsis protoplasts) (Arabidopsis thaliana) (UniProt Q8RXG3)
T2 sequence: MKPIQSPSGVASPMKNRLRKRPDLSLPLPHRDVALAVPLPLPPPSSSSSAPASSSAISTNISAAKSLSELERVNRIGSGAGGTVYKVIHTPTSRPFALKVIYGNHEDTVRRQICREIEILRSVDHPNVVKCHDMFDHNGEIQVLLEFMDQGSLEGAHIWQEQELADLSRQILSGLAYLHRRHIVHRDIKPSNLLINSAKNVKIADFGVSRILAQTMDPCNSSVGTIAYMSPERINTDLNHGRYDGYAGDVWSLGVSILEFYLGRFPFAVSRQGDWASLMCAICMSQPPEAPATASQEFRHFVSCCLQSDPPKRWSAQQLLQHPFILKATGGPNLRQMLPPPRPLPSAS


Experiments:
Assay in all cases: co-IP; Arabidopsis protoplasts transformed with plasmids, 12 hours at 22 °C; anti-FLAG, anti-HA or anti-GFP agarose, 50 mM HEPES pH 7.5, 150 mM KCl, 1 mM EDTA, 0.5% Triton X-100, 1 mM DTT; immunoblot
[1] = target: T1, MKK4 (expressed in Arabidopsis protoplasts) (Arabidopsis thaliana)
[2] = target: T2, MKK5 (expressed in Arabidopsis protoplasts) (Arabidopsis thaliana)
[3] = target: MPK6 (expressed in Arabidopsis protoplasts) (Arabidopsis thaliana) (UniProt Q39026)

| Binder | binding [1] | binding [2] | binding [3] |
| --- | --- | --- | --- |
| GPA1 (expressed in Arabidopsis protoplasts) (protein, UniProt P18064 1-383) MGLLCSRSRHHTEDTDENTQAAEIERRIEQEAKAEKHIRKLLLLGAGESGKSTIFKQIKLLFQTGFDEGELKSYVPVIHANVYQTIKLLHDGTKEFAQNETDSAKYMLSSESIAIGEKLSEIGGRLDYPRLTKDIAEGIETLWKDPAIQETCARGNELQVPDCTKYLMENLKRLSDINYIPTKEDVLYARVRTTGVVEIQFSPVGENKKSGEVYRLFDVGGQRNERRKWIHLFEGVTAVIFCAAISEYDQTLFEDEQKNRMMETKELFDWVLKQPCFEKTSFMLFLNKFDIFEKKVLDVPLNVCEWFRDYQPVSSGKQEIEHAYEFVKKKFEELYYQNTAPDRVDRVFKIYRTTALDQKLVKKTFKLVDETLRRRNLLEAGLL | no binding | no binding | binds |
| AGB1 (expressed in Arabidopsis protoplasts) (protein, UniProt P49177 1-377) MSVSELKERHAVATETVNNLRDQLRQRRLQLLDTDVARYSAAQGRTRVSFGATDLVCCRTLQGHTGKVYSLDWTPERNRIVSASQDGRLIVWNALTSQKTHAIKLPCAWVMTCAFSPNGQSVACGGLDSVCSIFSLSSTADKDGTVPVSRMLTGHRGYVSCCQYVPNEDAHLITSSGDQTCILWDVTTGLKTSVFGGEFQSGHTADVLSVSISGSNPNWFISGSCDSTARLWDTRAASRAVRTFHGHEGDVNTVKFFPDGYRFGTGSDDGTCRLYDIRTGHQLQVYQPHGDGENGPVTSIAFSVSGRLLFAGYASNNTCYVWDTLLGEVVLDLGLQQDSHRNRISCLGLSADGSALCTGSWDSNLKIWAFGGHRRVI | binds | binds | binds |
